Experimental data reported in patent US8198462B2, “Dendritic photoactive compound comprising oxime ester and method for preparing the same” (LG Chem, Ltd., priority 2007, dated 2012).

Experiment: Photosensitivity by FT-IR: acrylate consumption in a thin film after irradiation
Settings: 2 micron thin film with 2 moles pentaerythritol triacrylate, light of maximum absorption wavelength, 30 mW/cm^2 for 10 min
Experimental: For the comparison of the photosensitivities of the compounds that comprised oxime ester, in conjunction with Irgacure OXE-02 (Comparative Example 2) of Ciba Specialty Chemical, the photosensitivities of the compounds of Examples were measured by using the FT-IR. After the photoinitiator and 2 moles of pentaerythritol triacrylate were dissolved in 10 g of cyclohexanone, it was spin coated on the glass substrate to form a thin film that had the thickness of 2 microns, and the thin film was heated at 100° C. for 2 min by using the hot plate to remove the solvent. The FT-IR of the thin film was measured, light of the maximum absorption wavelength of each sample was irradiated in the intensity of 30 mW/cm^2 for 10 min, and the consumption amounts of acrylate were compared to each other. The high pressure mercury lamp was used as the light source, and the wavelength was tested by the optical filter (the products that were manufactured by Mellis-Griot, Co., Ltd).

Compound | Consumption amount of acrylate [mol]
CCn1c2ccc(/C(CC(c3cccs3)N(OC(C)=O)C(C)=O)=N/OC(C)=O)cc2c2cc(/C(CC(c3cccs3)N(OC(C)=O)C(C)=O)=N/OC(C)=O)ccc21 (stereo not drawn) [Example 4] | 5.8
CCn1c2ccc(C(=O)c3ccccc3C)cc2c2cc(/C(C)=N/OC(C)=O)ccc21 [Comparative Example 1, reference compound] | 5.4
CSc1ccc(C(C/C(=N\OC(C)=O)c2ccc(/C(CC(c3ccc(SC)cc3)N(OC(C)=O)C(C)=O)=N/OC(C)=O)cc2)N(OC(C)=O)C(C)=O)cc1 (stereo not drawn) [Example 2] | 6.2
CCn1c2ccc(/C(CC(c3ccc(SC)cc3)N(OC(C)=O)C(C)=O)=N/OC(C)=O)cc2c2cc(/C(CC(c3ccc(SC)cc3)N(OC(C)=O)C(C)=O)=N/OC(C)=O)ccc21 (stereo not drawn) [Example 5] | 5.6
CC(=O)O/N=C(\CC(c1ccc(C(C/C(=N\OC(C)=O)c2ccccc2)N(OC(C)=O)C(C)=O)cc1)N(OC(C)=O)C(C)=O)c1ccccc1 (stereo not drawn) [Example 1] | 5.2
CCn1c2ccc(/C(CC(c3ccccc3)N(OC(C)=O)C(C)=O)=N/OC(C)=O)cc2c2cc(/C(CC(c3ccccc3)N(OC(C)=O)C(C)=O)=N/OC(C)=O)ccc21 (stereo not drawn) [Example 3] | 6.2
